Reference: article PMC3888430
These are yes or no findings as the source states them, for the method shown. In cells and extracts the contact can be indirect. Some entries that bind do so weakly or less than the wild type.

The chains behind the UniProt entries cited, without tags or fusion partners.
UniProt Q07832: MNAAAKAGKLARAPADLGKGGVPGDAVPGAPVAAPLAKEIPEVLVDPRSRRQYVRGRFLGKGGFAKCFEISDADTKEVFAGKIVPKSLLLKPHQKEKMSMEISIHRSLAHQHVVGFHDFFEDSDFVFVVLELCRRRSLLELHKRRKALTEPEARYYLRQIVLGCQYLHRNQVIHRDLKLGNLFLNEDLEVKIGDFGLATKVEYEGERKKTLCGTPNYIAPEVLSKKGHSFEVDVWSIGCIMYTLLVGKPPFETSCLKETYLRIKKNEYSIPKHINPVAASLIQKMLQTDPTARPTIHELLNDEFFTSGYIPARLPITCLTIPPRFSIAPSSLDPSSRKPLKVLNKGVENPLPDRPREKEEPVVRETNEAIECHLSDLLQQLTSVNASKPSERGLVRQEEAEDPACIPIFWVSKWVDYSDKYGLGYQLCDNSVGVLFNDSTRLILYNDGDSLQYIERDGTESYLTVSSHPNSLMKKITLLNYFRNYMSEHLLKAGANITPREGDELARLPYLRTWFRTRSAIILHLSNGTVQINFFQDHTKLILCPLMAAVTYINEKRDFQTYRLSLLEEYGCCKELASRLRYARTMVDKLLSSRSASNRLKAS

Molecular target: Polo-like kinase 1 (PLK1), endogenous in 3T3-L1 fibroblasts (mouse (endogenous in 3T3-L1)) (UniProt Q07832)
Experiment: co-IP; 3T3-L1 fibroblast lysate in buffer A (20 mM HEPES pH 7.4, 0.25 M sucrose, 1 mM EDTA) with 1% Nonidet P-40; 3 h at 4°C with rabbit α-sorcin or rabbit α-PLK1, protein G-Sepharose; western blot

binding: binds
B1: sorcin, endogenous in 3T3-L1 fibroblasts (protein, UniProt Q6P069 1-198)
chain: MAYPGHPGAGGGYYPGGYGGAPGGPAFPGQTQDPLYGYFAAVAGQDGQIDADELQRCLTQSGIAGGYKPFNLETCRLMVSMLDRDMSGTMGFNEFKELWAVLNGWRQHFISFDSDRSGTVDPQELQKALTTMGFRLSPQTVNSVAKRYSTSGKITFDDYIACCVKLRALTDSFRRRDSGQQGVVNFSYDDFIQCVMTV
